Results from PMC4672292.
Results are given in words; binding and its absence hold for the method and conditions named. Some binding calls cover weakened binding; strength is not graded here. One block for each binder: values may come before it.

Protein sequences, listed by entry. Tags and fused reporters are not part of them.
UniProt P06136: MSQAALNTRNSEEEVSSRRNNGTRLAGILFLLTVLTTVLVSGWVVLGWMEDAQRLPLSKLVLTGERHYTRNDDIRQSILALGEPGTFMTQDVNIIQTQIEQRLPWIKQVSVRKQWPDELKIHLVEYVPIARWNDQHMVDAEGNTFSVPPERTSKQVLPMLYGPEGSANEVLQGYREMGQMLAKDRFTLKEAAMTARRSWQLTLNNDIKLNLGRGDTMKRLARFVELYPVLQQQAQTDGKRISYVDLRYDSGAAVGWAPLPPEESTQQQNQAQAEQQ

Key:
[1] = target: FtsQ (E. coli (endogenous in MC4100)) (UniProt P06136); assay: native gel or EMSA; as a3 but gel fragment cut at the same height from the lane of stationary phase cells
[2] = target: FtsQ (E. coli (endogenous in MC4100)) (UniProt P06136); assay: native gel or EMSA; clear native PAGE (CN-PAGE, 4 °C) of mid-exponential E. coli MC4100 whole cells treated with lysozyme and solubilised with 1% DDM (750 mM aminocaproic acid, 50 mM Bis Tris pH 7.0); native gel Western-blotted and probed with antibodies; co-migration at about 1 MDa; also cells with an extra plasmid copy of ftsQ or ftsQ-D237N, without or with 0.2% arabinose
[3] = target: FtsQ (E. coli (endogenous in MC4100)) (UniProt P06136); assay: native gel or EMSA; 1 MDa band (found by anti-FtsQ) excised from the Coomassie-stained CN-PAGE gel of mid-exponential cells, run on SDS-PAGE, Western-blotted and probed with antibodies against division proteins
[4] = target: FtsQ (E. coli (endogenous in MC4100)) (UniProt P06136); assay: condition: only cells in early stationary growth phase; native gel or EMSA; as a1 but cells sampled in early stationary growth phase (OD600 3.5-4.0)

- binding [2]: binds
- binding [3]: binds
B1: FtsN (protein, UniProt P29131 1-319)
chain: MAQRDYVRRSQPAPSRRKKSTSRKKQRNLPAVSPAMVAIAAAVLVTFIGGLYFITHHKKEESETLQSQKVTGNGLPPKPEERWRYIKELESRQPGVRAPTEPSAGGEVKTPEQLTPEQRQLLEQMQADMRQQPTQLVEVPWNEQTPEQRQQTLQRQRQAQQLAEQQRLAQQSRTTEQSWQQQTRTSQAAPVQAQPRQSKPASSQQPYQDLLQTPAHTTAQSKPQQAAPVARAADAPKPTAEKKDERRWMVQCGSFRGAEQAETVRAQLAFEGFDSKITTNNGWNRVVIGPVKGKENADSTLNRLKMAGHTNCIRLAAGG
- binding [1]: no binding (condition: cells in stationary growth phase)

- binding [4]: no binding
- binding [2]: binds
- binding [3]: binds
B2: FtsK (protein, UniProt P46889 1-1329)
chain: MSQEYIEDKEVTLTKLSSGRRLLEALLILIVLFAVWLMAALLSFNPSDPSWSQTAWHEPIHNLGGMPGAWLADTLFFIFGVMAYTIPVIIVGGCWFAWRHQSSDEYIDYFAVSLRIIGVLALILTSCGLAAINADDIWYFASGGVIGSLLSTTLQPLLHSSGGTIALLCVWAAGLTLFTGWSWVTIAEKLGGWILNILTFASNRTRRDDTWVDEDEYEDDEEYEDENHGKQHESRRARILRGALARRKRLAEKFINPMGRQTDAALFSGKRMDDDEEITYTARGVAADPDDVLFSGNRATQPEYDEYDPLLNGAPITEPVAVAAAATTATQSWAAPVEPVTQTPPVASVDVPPAQPTVAWQPVPGPQTGEPVIAPAPEGYPQQSQYAQPAVQYNEPLQQPVQPQQPYYAPAAEQPAQQPYYAPAPEQPVAGNAWQAEEQQSTFAPQSTYQTEQTYQQPAAQEPLYQQPQPVEQQPVVEPEPVVEETKPARPPLYYFEEVEEKRAREREQLAAWYQPIPEPVKEPEPIKSSLKAPSVAAVPPVEAAAAVSPLASGVKKATLATGAAATVAAPVFSLANSGGPRPQVKEGIGPQLPRPKRIRVPTRRELASYGIKLPSQRAAEEKAREAQRNQYDSGDQYNDDEIDAMQQDELARQFAQTQQQRYGEQYQHDVPVNAEDADAAAEAELARQFAQTQQQRYSGEQPAGANPFSLDDFEFSPMKALLDDGPHEPLFTPIVEPVQQPQQPVAPQQQYQQPQQPVPPQPQYQQPQQPVAPQPQYQQPQQPVAPQQQYQQPQQPVAPQQQYQQPQQPVAPQPQDTLLHPLLMRNGDSRPLHKPTTPLPSLDLLTPPPSEVEPVDTFALEQMARLVEARLADFRIKADVVNYSPGPVITRFELNLAPGVKAARISNLSRDLARSLSTVAVRVVEVIPGKPYVGLELPNKKRQTVYLREVLDNAKFRDNPSPLTVVLGKDIAGEPVVADLAKMPHLLVAGTTGSGKSVGVNAMILSMLYKAQPEDVRFIMIDPKMLELSVYEGIPHLLTEVVTDMKDAANALRWCVNEMERRYKLMSALGVRNLAGYNEKIAEADRMMRPIPDPYWKPGDSMDAQHPVLKKEPYIVVLVDEFADLMMTVGKKVEELIARLAQKARAAGIHLVLATQRPSVDVITGLIKANIPTRIAFTVSSKIDSRTILDQAGAESLLGMGDMLYSGPNSTLPVRVHGAFVRDQEVHAVVQDWKARGRPQYVDGITSDSESEGGAGGFDGAEELDPLFDQAVQFVTEKRKASISGVQRQFRIGYNRAARIIEQMEAQGIVSEQGHNGNREVLAPPPFD
- binding [1]: no binding (condition: cells in stationary growth phase)
